# From ChEMBL document CHEMBL4033791, “Creation of a Novel Class of Potent and Selective MutT Homologue 1 (MTH1) Inhibitors Using Fragment-Based Screening and Structure-Based Drug Design” (J Med Chem, 2018)
# Experiment: Solubility of the compound in buffer
compound,measurement,value
O=C(NC1COC1)c1cc2c(N3CCCC3c3cccnc3)ccnc2[nH]1 (stereo unspecified),solubility,250 µM
